Measurements reported in PubChem BioAssay AID1259405 (NCATS, 2018)

Test: 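Knock-downs that lift recombinant protein yield in hamster ovary cells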 (primary screen)
Cells: Chinese hamster CHO-K1 ovary cells with stable secreted eGFP expression
Reagent: single siRNA against mouse genes, 0.8 pmol siRNA per well (2 µl of 400 nM stock)
Timing: 3 days
Measurement: 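Per-well intracellular GFP measured by laser scanning cytometry, plus viability from ATP luminescence, each relative to plate median of non-targeting control wells, in %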
Direction: GFP, % of control: higher = more GFP per well, higher productivity; viability (ATP), % of control: higher = more viable cells (more ATP)
Hit rule: 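Called active when intracellular GFP, relative to negative control, is at or above 120%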
This is an unselected part of about 50,000 reagents tested. About 4,000 of them (8%) were called active. 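Mouse siRNA library applied to hamster cells; one well for each siRNA.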 Reagents against one gene are numbered here.

The opening 6 entries as a preview:
target gene | siRNA no. | GFP, % of control | viability (ATP), % of control | Call
Fcrl5 (Fc receptor-like 5) | 1 | 76 | 67 | inactive
Fcrl5 (Fc receptor-like 5) | 2 | 79.5 | 90.5 | inactive
Fcrl5 (Fc receptor-like 5) | 3 | 74.3 | 76.4 | inactive
Aph1c (aph1 homolog C, gamma secretase subunit) | 1 | 92 | 116 | inactive
Aph1c (aph1 homolog C, gamma secretase subunit) | 2 | 112 | 64.3 | inactive
Aph1c (aph1 homolog C, gamma secretase subunit) | 3 | 87.4 | 51.1 | inactive

Results, from the start:
target gene | siRNA no. | GFP, % of control | viability (ATP), % of control | Call
Fcrl5 (Fc receptor-like 5) | 1 | 76 | 67 | inactive
Fcrl5 (Fc receptor-like 5) | 2 | 79.5 | 90.5 | inactive
Fcrl5 (Fc receptor-like 5) | 3 | 74.3 | 76.4 | inactive
Aph1c (aph1 homolog C, gamma secretase subunit) | 1 | 92 | 116 | inactive
Aph1c (aph1 homolog C, gamma secretase subunit) | 2 | 112 | 64.3 | inactive
Aph1c (aph1 homolog C, gamma secretase subunit) | 3 | 87.4 | 51.1 | inactive
Tmem108 (transmembrane protein 108) | 1 | 124 | 102 | active
Tmem108 (transmembrane protein 108) | 2 | 46.9 | 62.9 | inactive
Tmem108 (transmembrane protein 108) | 3 | 65.2 | 57 | inactive
Tmem132d (transmembrane protein 132D) | 1 | 64.6 | 91.4 | inactive
Tmem132d (transmembrane protein 132D) | 2 | 70.3 | 81.2 | inactive
Tmem132d (transmembrane protein 132D) | 3 | 93.4 | 109 | inactive
Mapk6 (mitogen-activated protein kinase 6) | 1 | 98.2 | 81 | inactive
Sesn2 (sestrin 2) | 1 | 127 | 77.8 | active
Sesn2 (sestrin 2) | 2 | 71 | 79.5 | inactive
Sesn2 (sestrin 2) | 3 | 44.5 | 61.7 | inactive
Serpinb1a (serine (or cysteine) peptidase inhibitor, clade B, member 1a) | 1 | 81 | 93.1 | inactive
Serpinb1a (serine (or cysteine) peptidase inhibitor, clade B, member 1a) | 2 | 50.5 | 68.1 | inactive
Serpinb1a (serine (or cysteine) peptidase inhibitor, clade B, member 1a) | 3 | 68.4 | 63.6 | inactive
Dnajc7 (DnaJ heat shock protein family (Hsp40) member C7) | 1 | 53.2 | 63.5 | inactive
Dnajc7 (DnaJ heat shock protein family (Hsp40) member C7) | 2 | 73.4 | 80.2 | inactive
Dnajc7 (DnaJ heat shock protein family (Hsp40) member C7) | 3 | 68.9 | 98.7 | inactive
Cfd (complement factor D) | 1 | 114 | 108 | inactive
Cfd (complement factor D) | 2 | 68 | 64.4 | inactive
Tas1r2 (taste receptor, type 1, member 2) | 1 | 37.3 | 58.8 | inactive
Tas1r2 (taste receptor, type 1, member 2) | 2 | 73.2 | 82.3 | inactive
Tas1r2 (taste receptor, type 1, member 2) | 3 | 83.4 | 95.9 | inactive
Man1a (mannosidase 1, alpha) | 1 | 122 | 91.7 | active
Man1a (mannosidase 1, alpha) | 2 | 93.1 | 82.9 | inactive
Man1a (mannosidase 1, alpha) | 3 | 57.1 | 113 | inactive
Snapc3 (small nuclear RNA activating complex, polypeptide 3) | 1 | 69.1 | 71.1 | inactive
Snapc3 (small nuclear RNA activating complex, polypeptide 3) | 2 | 79 | 67.8 | inactive
Snapc3 (small nuclear RNA activating complex, polypeptide 3) | 3 | 88.3 | 79.4 | inactive
Or10j5 (olfactory receptor family 10 subfamily J member 5) | 1 | 66.7 | 59.7 | inactive
Or10j5 (olfactory receptor family 10 subfamily J member 5) | 2 | 54.3 | 58.5 | inactive
Or10j5 (olfactory receptor family 10 subfamily J member 5) | 3 | 89.1 | 70.5 | inactive
Rilpl2 (Rab interacting lysosomal protein-like 2) | 1 | 87.2 | 69.1 | inactive
Rilpl2 (Rab interacting lysosomal protein-like 2) | 2 | 117 | 91.7 | inactive
Rilpl2 (Rab interacting lysosomal protein-like 2) | 3 | 72 | 57.8 | inactive
Tmem33 (transmembrane protein 33) | 1 | 98.2 | 113 | inactive
Tmem33 (transmembrane protein 33) | 2 | 75 | 90.8 | inactive
Tmem33 (transmembrane protein 33) | 3 | 83.6 | 74.1 | inactive
Hoxd13 (homeobox D13) | 1 | 78.2 | 123 | inactive
Hoxd13 (homeobox D13) | 2 | 129 | 129 | active
Hoxd13 (homeobox D13) | 3 | 111 | 78.2 | inactive
Ercc5 | 1 | 99.1 | 88.8 | inactive
Ercc5 | 2 | 108 | 86 | inactive
Ercc5 | 3 | 126 | 124 | active
Gsta4 (glutathione S-transferase, alpha 4) | 1 | 87.5 | 92.6 | inactive
Gsta4 (glutathione S-transferase, alpha 4) | 2 | 83.7 | 68.6 | inactive
Gsta4 (glutathione S-transferase, alpha 4) | 3 | 64.8 | 59.5 | inactive
Tle4 (transducin-like enhancer of split 4) | 1 | 136 | 95.9 | active
Tle4 (transducin-like enhancer of split 4) | 2 | 68.1 | 67.8 | inactive
Tle4 (transducin-like enhancer of split 4) | 3 | 90.1 | 86.2 | inactive
Vmn1r45 (vomeronasal 1 receptor 45) | 1 | 72.1 | 76.1 | inactive
Vmn1r45 (vomeronasal 1 receptor 45) | 2 | 35.6 | 20.9 | inactive
Vmn1r45 (vomeronasal 1 receptor 45) | 3 | 68.4 | 77.7 | inactive
Pfn2 (profilin 2) | 1 | 85 | 75.7 | inactive
Pfn2 (profilin 2) | 2 | 61.3 | 76.8 | inactive
Pfn2 (profilin 2) | 3 | 77 | 108 | inactive
Nos3 (nitric oxide synthase 3, endothelial cell) | 1 | 63.4 | 62.8 | inactive
Nos3 (nitric oxide synthase 3, endothelial cell) | 2 | 105 | 62.5 | inactive
Cul7 (cullin 7) | 1 | 47.1 | 65.3 | inactive
Cul7 (cullin 7) | 2 | 75.2 | 79.6 | inactive
Cul7 (cullin 7) | 3 | 94.6 | 72.8 | inactive
Slc20a1 | 1 | 48.4 | 70 | inactive
Slc20a1 | 2 | 97.4 | 75 | inactive
Slc20a1 | 3 | 48.5 | 59.5 | inactive
Sds (serine dehydratase) | 1 | 74.5 | 89.6 | inactive
Sds (serine dehydratase) | 2 | 81.2 | 88.6 | inactive
Ankrd53 (ankyrin repeat domain 53) | 1 | 94.3 | 65.3 | inactive
Ankrd53 (ankyrin repeat domain 53) | 2 | 52.3 | 53.2 | inactive
Ankrd53 (ankyrin repeat domain 53) | 3 | 76.7 | 70.7 | inactive
Zar1 (zygote arrest 1) | 1 | 52.6 | 46.7 | inactive
Zar1 (zygote arrest 1) | 2 | 55.4 | 62.8 | inactive
Zar1 (zygote arrest 1) | 3 | 77.6 | 103 | inactive
Bag4 (BCL2-associated athanogene 4) | 1 | 24.7 | 59.5 | inactive
Bag4 (BCL2-associated athanogene 4) | 2 | 114 | 105 | inactive
Bag4 (BCL2-associated athanogene 4) | 3 | 51.9 | 99.5 | inactive
Ccdc187 (coiled-coil domain containing 187) | 1 | 103 | 119 | inactive
Ccdc187 (coiled-coil domain containing 187) | 2 | 111 | 37 | inactive
Ccdc187 (coiled-coil domain containing 187) | 3 | 74.4 | 54.9 | inactive
Eola1 (endothelium and lymphocyte associated ASCH domain 1) | 1 | 110 | 104 | inactive
Eola1 (endothelium and lymphocyte associated ASCH domain 1) | 2 | 62.8 | 65.6 | inactive
Eola1 (endothelium and lymphocyte associated ASCH domain 1) | 3 | 80.2 | 52.3 | inactive
